According to US20190321496A1 (Baker IDI Heart and Diabetes Institute Holdings Limited, priority 2016, published 2019):

Test: general procedure: Fmoc solid-phase peptide synthesis; Fmoc-Lys(Boc) Wang resin; HATU/DIPEA
Conditions: whole synthesis, scale 0.25 mmol

Substance	isolated mass [mg]	isolated yield [%]
Fmoc-TLTYTWSGK-OH	33.2	9.9
Fmoc-GLGYGWSGK-OH	45.2	15

The star is where a group is joined. Fmoc = O=C(OCC1c2ccccc2-c2ccccc21)*
